PubChem BioAssay AID720505 | Drosophila RNAi Screening Center – 2013

Test: 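Genes needed for store-operated calcium entry in fly cells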 (primary screen)
Cell system: Drosophila S2R+ cells
Knock-down reagent: long dsRNA against Drosophila genes
Challenge: thapsigargin (2 µM) in calcium-free buffer to empty internal stores, then 2 mM calcium added back
Detection: 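Fluo-4 signal in 384-well plates read on a FLIPR after thapsigargin (2 µM, calcium-free) store depletion and 2 mM calcium add-back; unnormalised mean endpoint per well; screen run twice, selected wells retested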
Direction: calcium signal and retest calcium signal: higher = more calcium entry after store depletion
Active means: 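About 1500 genes called as lowering calcium entry, by varying amounts, judged against per-plate control wells with STIM1 as positive and Rho1 as negative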
Calls: active = called as lowering calcium entry; inactive = not called
The screen tested about 20,000 reagents; this is an unselected part of those with a known target gene and a result. Of all reagents, about 2,100 (10%) got an active call. 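Raw plate signals without normalisation; calls rest on control-based scores that were not deposited; replicate 2 separates called from uncalled poorly.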 Entries without a mark were called inactive. The record does not give: the amount of reagent, the time to read-out.

no.	gene knocked down	dsRNA	calcium signal, replicate 1	calcium signal, replicate 2	retest calcium signal, replicate 1	retest calcium signal, replicate 2
1	CG13931	DRSC08400	75.2	98.6		
2	RpS2	DRSC03614	79.2	83.4		
3	CG34458	DRSC06925	158	208		
4	Naa20B	DRSC21442	128	73.1		
5	ste24b	DRSC07315	89.3	144		
6	RanBPM	DRSC06079	123	148		
7	Not10	DRSC14129	110	113		
8	Bcat	DRSC19756	105	121		
9	CG13216	DRSC06338	83.9	82.4		
10	CG14312	DRSC14791	163	157		
11	CG31804	DRSC22728	109	183		
12	Oamb	DRSC15120	127	110		
13	Oamb	DRSC16763	204	154		
14	Act5C	DRSC17723	208	128		
15	140up	DRSC12634	97	123		
16	S-Lap2	DRSC10628	100	82.9		
17	Drice	DRSC16715	120	119		
18	AstA	DRSC14634	218	106		
19	ATPsyndelta	DRSC18248	38 (active)	54.8		
20	RpL7A	DRSC18709	119 (active)	86.8		
21	Smyd3	DRSC17744	91.5	143		

Next part (2 carried over from the part before).
no.	gene knocked down	dsRNA	calcium signal, replicate 1	calcium signal, replicate 2	retest calcium signal, replicate 1	retest calcium signal, replicate 2
20	RpL7A	DRSC18709	119 (active)	86.8		
21	Smyd3	DRSC17744	91.5	143		
22	CG31441	DRSC15723	125	108		
23	brwl	DRSC01080	112	117		
24	brwl	DRSC02729	75.8	90.5		
25	CG6495	DRSC01993	91	125		
26	hiw	DRSC20338	84	89.3		
27	hiw	DRSC20339	72.8 (active)	93.6		
28	CG46301	DRSC01916	59.2 (active)	59.7	84.9	133
29	Aldh-III	DRSC06047	61.9 (active)	205		
30	Fmr1	DRSC16674	83.8	78.4		
31	CG4364	DRSC02742	86.5	72.6		
32	lark	DRSC11362	126	112		
33	Hasp	DRSC02022	116	108		
34	Jhbp6	DRSC11714	101	121		
